At least one structure is not confirmed: it was looked up by name or label, or the drawing left a doubt.
Tests used:
[1] = tested on: dopamine (DA) in the striata; assay: MPTP mouse model of PD, HPLC of striatal dopamine; assay type: in vivo, mice; conditions: 7 days after MPTP; FIG. 10
Description: (§1) Six- to eight-week old C57BL/6 mice were purchased from Harlan (Indianapolis, Ind.). For acute MPTP intoxication, mice received four intraperitoneal (i.p.) injections of MPTP-HCl (18 mg/kg of free base; Sigma Chemical Co., St. Louis, Mo.) in saline at 2-h intervals. Control animals received only saline.
(§2) GTB was mixed in 0.5% methylcellulose (MC) and from 3 h after the last injection of MPTP, mice were gavaged 100 μL GTB-mixed MC once daily using gavage needle. Therefore, control MPTP mice received only MC as vehicle.
Striatal level of dopamine was quantified in Complete Stand-Alone HPLC-ECD System EiCOMHTEC-500 (JM Science Inc., Grand Island, N.Y.). Briefly, mice were sacrificed by cervical dislocation after 7 days of MPTP intoxication and their striata were collected and immediately frozen in dry ice and stored at −80° C. until analysis. […] After pH adjustment and filtration, 10 μl of supernatant was injected onto an Eicompak SC-3ODS column (Complete Stand-Alone HPLC-ECD System EiCOMHTEC-500 from JM Science Inc., Grand Island, N.Y.) and analyzed following the manufacturer's protocol.
Next, to determine whether GTB protects against biochemical deficits caused by MPTP, the inventor quantified levels of dopamine (DA) in the striata 7 days after the MPTP treatment. […]

[2] = tested on: Tyrosine hydroxylase (TH); assay: MPTP mouse model of PD, Western blot of nigral TH; assay type: in vivo; conditions: MPTP-intoxicated mice; FIG. 9A-B
Description: as §1, §2
(§3) Immunoblot analysis for DJ-1 and TH was carried out. Briefly, cell homogenates were electrophoresed, proteins were transferred onto a nitrocellulose membrane, and bands were visualized with an Odyssey infrared scanner after immunolabeling with respective primary antibodies followed by infra-red fluorophore-tagged secondary antibody (Invitrogen).
Tyrosine hydroxylase (TH), the key enzyme responsible for the production of dopamine, is present in dopaminergic neurons. MPTP-intoxication led to approximately 60% loss of nigral TH (FIG. 9A-B) compared with saline-injected controls.

DJ-1 = assay: MPTP mouse model of PD, Western blot of DJ-1 in the nigra; assay type: in vivo; conditions: MPTP-intoxicated mice; FIG. 9A-B
Description: as §1, §2, §3
Upregulation and/or maintenance of PD-related beneficial protein such as DJ-1 in the nigra during neurodegenerative insults may have therapeutic efficacy in PD.

O=C(OCC(COC(=O)c1ccccc1)OC(=O)c1ccccc1)c1ccccc1 [GTB, glyceryl tribenzoate]
50 or 100 mg/kg body wt/d: dose of maximum protection of striatal dopamine [1] | dose of maximum protection of nigral TH [2] | dose of maximum protection of DJ-1 (DJ-1)

From patent US9968582B2, “Use of a benzoate containing composition in urea cycle disorders and neurodegenerative disorders” (Rush University Medical Center, priority 2014, dated 2018)
